Experimental data: paper PMC4673491
Results are given in words; binding and its absence hold for the method and conditions named. Binding seen in cells or lysates may run through a third protein. Some binding calls cover weakened binding; strength is not graded here. Sequences can lack the tags named with a protein.

By UniProt entry, the sequences of proteins in these tests, tags left out. Where a name states a change or a piece, a line headed by the entry shows the natural chain unless it says otherwise.
UniProt P55085: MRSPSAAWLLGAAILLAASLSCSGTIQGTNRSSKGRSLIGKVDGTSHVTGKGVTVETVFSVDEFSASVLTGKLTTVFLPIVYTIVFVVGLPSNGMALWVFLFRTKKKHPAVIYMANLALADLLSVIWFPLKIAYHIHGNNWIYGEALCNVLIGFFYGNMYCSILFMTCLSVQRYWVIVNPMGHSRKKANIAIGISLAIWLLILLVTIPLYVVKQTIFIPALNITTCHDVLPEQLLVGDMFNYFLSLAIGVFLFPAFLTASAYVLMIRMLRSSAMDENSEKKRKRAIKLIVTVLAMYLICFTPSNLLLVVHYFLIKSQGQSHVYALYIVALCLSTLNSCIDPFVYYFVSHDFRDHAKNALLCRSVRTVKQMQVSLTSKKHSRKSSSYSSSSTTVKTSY

Target: T1, GST-PH-Vav3 (UniProt Q9UKW4)
T1 sequence: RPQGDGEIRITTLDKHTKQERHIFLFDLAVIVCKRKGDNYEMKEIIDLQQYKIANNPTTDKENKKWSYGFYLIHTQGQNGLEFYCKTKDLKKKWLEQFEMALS
Experiment: pull-down; lysates of HEK293T cells overexpressing PAR2 mutants or deletion constructs added to GST-PH-Etk/Bmx, GST-PH-Akt or GST-PH-Vav3; only the target purified

Substance: hPar2 K368Z (from UniProt P55085 26-367) (domain or fragment)
- binding: binds

Substance: hPar2-K356Z (from UniProt P55085 26-355) (domain or fragment)
- binding: binds
